Laboratory results as given in article PMC9890722.
No constants are given. Whether binding was seen depends on the method and setting. Binding seen in cells or lysates may run through a third protein. Some entries that bind do so weakly or less than the wild type. For some of these results: Tags and fused reporters may be left off the sequences shown.

Sequences of proteins named here, by UniProt entry; tags and fusion partners are left off.
UniProt O60674: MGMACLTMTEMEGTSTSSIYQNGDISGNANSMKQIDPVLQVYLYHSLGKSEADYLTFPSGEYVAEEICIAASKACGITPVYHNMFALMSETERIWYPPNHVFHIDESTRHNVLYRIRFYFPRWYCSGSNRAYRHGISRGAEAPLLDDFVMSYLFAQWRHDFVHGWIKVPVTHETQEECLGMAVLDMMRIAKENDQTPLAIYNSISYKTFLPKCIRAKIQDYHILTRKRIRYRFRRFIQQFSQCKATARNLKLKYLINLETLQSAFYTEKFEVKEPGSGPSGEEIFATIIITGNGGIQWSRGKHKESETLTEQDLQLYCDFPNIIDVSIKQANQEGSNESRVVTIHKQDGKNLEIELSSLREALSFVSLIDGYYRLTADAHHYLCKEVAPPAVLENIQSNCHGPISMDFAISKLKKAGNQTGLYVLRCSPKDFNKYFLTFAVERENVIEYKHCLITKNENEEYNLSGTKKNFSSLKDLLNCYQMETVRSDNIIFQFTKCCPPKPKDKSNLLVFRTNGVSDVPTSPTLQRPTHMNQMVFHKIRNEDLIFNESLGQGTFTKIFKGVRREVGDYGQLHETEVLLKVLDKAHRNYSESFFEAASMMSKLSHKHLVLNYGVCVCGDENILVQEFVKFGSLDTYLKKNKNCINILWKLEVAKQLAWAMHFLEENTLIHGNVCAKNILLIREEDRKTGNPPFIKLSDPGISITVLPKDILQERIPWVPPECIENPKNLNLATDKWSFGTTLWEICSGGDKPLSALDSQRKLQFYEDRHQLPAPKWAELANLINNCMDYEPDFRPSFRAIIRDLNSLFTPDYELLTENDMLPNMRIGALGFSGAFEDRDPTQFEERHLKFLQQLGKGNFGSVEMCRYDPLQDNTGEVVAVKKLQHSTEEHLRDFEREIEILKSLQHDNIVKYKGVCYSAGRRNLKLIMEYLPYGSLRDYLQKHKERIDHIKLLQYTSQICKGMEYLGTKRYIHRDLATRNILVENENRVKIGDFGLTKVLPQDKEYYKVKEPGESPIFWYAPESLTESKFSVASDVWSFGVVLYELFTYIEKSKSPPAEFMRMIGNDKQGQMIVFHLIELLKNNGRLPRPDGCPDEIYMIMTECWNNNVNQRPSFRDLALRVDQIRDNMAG
UniProt O95714: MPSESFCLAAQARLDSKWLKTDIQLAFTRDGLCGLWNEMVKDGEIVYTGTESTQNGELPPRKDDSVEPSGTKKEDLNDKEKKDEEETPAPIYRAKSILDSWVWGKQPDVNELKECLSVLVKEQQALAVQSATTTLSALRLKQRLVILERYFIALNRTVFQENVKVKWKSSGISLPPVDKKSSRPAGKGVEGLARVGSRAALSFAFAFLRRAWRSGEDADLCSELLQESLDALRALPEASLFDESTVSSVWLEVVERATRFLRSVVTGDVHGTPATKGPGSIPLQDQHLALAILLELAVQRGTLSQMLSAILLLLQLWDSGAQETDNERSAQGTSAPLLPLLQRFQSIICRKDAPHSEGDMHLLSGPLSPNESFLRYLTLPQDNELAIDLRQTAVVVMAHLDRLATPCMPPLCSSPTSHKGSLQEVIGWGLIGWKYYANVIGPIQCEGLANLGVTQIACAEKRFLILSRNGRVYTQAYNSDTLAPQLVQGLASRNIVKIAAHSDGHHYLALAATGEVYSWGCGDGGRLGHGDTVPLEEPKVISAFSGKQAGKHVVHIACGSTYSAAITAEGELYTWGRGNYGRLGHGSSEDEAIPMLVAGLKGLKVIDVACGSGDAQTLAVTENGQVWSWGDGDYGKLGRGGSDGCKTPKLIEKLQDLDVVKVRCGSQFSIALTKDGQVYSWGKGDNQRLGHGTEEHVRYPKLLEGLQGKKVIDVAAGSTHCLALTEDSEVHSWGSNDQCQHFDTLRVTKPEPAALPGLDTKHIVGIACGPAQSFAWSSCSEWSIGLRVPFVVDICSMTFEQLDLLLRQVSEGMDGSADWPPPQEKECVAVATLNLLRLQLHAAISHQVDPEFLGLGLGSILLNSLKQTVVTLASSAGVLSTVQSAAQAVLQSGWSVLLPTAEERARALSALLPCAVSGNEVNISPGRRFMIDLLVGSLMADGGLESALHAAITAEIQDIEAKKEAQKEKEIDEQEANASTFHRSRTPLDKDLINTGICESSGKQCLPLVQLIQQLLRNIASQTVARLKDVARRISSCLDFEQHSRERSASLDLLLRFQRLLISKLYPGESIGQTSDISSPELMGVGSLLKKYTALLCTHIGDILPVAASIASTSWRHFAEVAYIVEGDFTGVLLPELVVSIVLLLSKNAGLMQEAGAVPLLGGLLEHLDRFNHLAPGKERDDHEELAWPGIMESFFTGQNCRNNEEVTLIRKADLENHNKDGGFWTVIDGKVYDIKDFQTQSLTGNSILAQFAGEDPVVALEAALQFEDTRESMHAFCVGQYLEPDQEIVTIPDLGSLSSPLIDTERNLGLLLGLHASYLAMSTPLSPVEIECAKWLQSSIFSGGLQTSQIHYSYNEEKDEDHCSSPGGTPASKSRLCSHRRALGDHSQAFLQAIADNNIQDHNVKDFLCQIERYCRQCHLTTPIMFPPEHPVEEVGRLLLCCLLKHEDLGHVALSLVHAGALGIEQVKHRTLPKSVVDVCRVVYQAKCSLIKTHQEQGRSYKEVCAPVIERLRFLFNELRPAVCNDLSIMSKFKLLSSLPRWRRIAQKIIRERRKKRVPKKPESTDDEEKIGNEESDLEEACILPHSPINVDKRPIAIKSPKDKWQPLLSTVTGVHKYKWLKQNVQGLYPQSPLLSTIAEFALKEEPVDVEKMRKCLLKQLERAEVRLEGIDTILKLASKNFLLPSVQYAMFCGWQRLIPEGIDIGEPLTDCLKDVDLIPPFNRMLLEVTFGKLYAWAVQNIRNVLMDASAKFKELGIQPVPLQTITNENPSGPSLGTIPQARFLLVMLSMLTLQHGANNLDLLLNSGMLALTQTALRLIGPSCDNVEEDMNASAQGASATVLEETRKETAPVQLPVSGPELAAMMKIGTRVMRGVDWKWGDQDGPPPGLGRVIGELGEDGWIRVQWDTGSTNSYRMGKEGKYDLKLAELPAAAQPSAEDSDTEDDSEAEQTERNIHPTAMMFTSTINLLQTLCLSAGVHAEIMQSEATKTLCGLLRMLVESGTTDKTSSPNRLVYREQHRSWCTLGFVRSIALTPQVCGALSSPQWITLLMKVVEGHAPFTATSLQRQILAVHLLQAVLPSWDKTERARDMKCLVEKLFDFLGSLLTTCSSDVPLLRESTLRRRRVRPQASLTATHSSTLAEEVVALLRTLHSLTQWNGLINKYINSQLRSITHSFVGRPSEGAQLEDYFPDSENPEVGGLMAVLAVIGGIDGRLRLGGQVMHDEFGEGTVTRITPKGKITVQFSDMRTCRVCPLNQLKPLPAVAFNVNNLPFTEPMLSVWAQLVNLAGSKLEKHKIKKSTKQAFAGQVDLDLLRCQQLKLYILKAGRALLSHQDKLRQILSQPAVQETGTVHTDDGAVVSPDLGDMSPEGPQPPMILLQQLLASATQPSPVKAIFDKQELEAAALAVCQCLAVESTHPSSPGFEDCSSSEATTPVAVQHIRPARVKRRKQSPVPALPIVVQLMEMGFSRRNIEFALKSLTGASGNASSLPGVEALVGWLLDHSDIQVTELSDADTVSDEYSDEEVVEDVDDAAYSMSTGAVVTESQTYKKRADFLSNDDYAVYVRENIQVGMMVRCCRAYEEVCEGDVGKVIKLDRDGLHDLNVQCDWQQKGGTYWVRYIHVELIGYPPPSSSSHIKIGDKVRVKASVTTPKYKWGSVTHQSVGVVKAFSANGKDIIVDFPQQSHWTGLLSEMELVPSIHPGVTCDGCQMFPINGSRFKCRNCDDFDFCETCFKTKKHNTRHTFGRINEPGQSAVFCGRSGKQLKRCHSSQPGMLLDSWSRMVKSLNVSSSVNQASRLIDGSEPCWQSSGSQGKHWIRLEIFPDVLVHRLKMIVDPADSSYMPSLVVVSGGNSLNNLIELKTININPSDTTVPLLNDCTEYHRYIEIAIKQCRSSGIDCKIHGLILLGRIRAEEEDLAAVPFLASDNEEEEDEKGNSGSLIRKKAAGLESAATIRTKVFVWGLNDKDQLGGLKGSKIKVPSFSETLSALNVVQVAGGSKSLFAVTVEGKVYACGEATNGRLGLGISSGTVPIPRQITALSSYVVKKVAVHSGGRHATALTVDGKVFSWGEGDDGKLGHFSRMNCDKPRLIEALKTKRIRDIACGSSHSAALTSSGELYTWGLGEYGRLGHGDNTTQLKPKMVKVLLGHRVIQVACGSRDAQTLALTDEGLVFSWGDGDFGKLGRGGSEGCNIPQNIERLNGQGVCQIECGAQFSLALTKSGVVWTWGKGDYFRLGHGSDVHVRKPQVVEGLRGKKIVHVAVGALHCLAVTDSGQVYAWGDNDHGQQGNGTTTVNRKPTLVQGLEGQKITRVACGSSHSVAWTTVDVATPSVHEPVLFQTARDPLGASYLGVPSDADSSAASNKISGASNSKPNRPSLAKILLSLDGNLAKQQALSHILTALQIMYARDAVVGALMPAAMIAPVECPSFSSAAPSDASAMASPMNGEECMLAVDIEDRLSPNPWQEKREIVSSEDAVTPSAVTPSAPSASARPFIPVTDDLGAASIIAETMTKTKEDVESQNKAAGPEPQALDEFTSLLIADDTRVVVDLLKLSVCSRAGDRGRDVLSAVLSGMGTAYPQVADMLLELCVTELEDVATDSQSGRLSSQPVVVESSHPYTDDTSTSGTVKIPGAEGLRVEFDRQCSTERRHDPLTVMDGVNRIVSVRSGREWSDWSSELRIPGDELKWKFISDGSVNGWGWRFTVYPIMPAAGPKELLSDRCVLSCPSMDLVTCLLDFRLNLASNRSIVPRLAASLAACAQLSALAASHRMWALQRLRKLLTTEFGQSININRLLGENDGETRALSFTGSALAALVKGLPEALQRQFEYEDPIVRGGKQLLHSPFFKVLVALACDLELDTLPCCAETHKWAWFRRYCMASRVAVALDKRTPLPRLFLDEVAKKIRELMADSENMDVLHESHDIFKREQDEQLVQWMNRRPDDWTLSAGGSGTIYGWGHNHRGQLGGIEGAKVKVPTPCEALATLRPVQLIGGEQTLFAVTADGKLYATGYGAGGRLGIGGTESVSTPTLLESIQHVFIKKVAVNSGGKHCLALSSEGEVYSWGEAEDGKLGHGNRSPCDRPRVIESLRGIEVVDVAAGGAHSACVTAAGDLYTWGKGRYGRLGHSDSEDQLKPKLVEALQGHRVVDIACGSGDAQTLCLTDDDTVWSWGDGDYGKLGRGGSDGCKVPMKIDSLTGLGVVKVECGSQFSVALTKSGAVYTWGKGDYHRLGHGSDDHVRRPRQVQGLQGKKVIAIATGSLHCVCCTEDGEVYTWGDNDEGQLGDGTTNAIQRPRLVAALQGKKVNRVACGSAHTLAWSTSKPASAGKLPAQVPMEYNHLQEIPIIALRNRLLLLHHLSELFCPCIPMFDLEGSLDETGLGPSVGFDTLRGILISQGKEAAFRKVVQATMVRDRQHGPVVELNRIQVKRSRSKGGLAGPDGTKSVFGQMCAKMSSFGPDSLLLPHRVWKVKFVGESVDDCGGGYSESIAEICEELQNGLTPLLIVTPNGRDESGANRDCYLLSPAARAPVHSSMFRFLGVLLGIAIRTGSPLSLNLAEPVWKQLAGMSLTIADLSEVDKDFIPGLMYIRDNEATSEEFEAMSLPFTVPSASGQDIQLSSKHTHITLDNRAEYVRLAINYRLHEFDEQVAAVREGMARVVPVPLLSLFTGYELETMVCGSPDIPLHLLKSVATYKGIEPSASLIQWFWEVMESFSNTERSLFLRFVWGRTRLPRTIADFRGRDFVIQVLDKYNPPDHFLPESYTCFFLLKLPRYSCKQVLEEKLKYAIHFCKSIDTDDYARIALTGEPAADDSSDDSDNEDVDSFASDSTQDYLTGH

How the values were obtained:
[1] = target: Janus kinase 2 (JAK2) (human (endogenous in HCC cells)) (UniProt O60674); experiment: co-IP; endogenous JAK2 and PTP1B in HERC2 knockout and HERC2-overexpressing HCC cells and their controls, treated with 50 ng/ml IL-6 for 20 min
[2] = target: HECT and RLD domain-containing E3 ubiquitin-protein ligase 2 (HERC2) (human (endogenous in Huh7)) (UniProt O95714); experiment: co-IP; endogenous proteins in Huh7 lysate, cells with or without 50 ng/ml IL-6 for 20 min (IL-6 enhanced the interaction); 1 ug antibody at 4 C overnight, protein A/G agarose
[3] = target: JAK2-GFP (UniProt O60674); experiment: co-IP; HEK293T co-transfected with JAK2-GFP and PTP1B-HA after transfection with HERC2 or mock plasmids; 50 ng/ml IL-6 for 20 min
[4] = target: HERC2-Flag (UniProt O95714); experiment: co-IP; HEK293T co-transfected with HERC2-Flag and PTP1B-HA or PTP1B mutant-HA; anti-Flag magnetic beads at 4 C overnight; blot with anti-HA

Binder	binding [1]	binding [2]	binding [3]	binding [4]
protein tyrosine phosphatase 1B (PTP1B) (protein, UniProt P18031 1-435) MEMEKEFEQIDKSGSWAAIYQDIRHEASDFPCRVAKLPKNKNRNRYRDVSPFDHSRIKLHQEDNDYINASLIKMEEAQRSYILTQGPLPNTCGHFWEMVWEQKSRGVVMLNRVMEKGSLKCAQYWPQKEEKEMIFEDTNLKLTLISEDIKSYYTVRQLELENLTTQETREILHFHYTTWPDFGVPESPASFLNFLFKVRESGSLSPEHGPVVVHCSAGIGRSGTFCLADTCLLLMDKRKDPSSVDIKKVLLEMRKFRMGLIQTADQLRFSYLAVIEGAKFIMGDSSVQDQWKELSHEDLEPPPEHIPPPPRPPKRILEPHNGKCREFFPNHQWVKEETQEDKDCPIKEEKGSPLNAAPYGIESMSQDTEVRSRVVGGSLRGAQAASPAKGEPSLPEKDEDHALSYWKPFLVNMCVATVLTAGAYLCYRFLFNSNT	binds	binds		
PTP1B-HA (protein, UniProt P18031 1-435) MEMEKEFEQIDKSGSWAAIYQDIRHEASDFPCRVAKLPKNKNRNRYRDVSPFDHSRIKLHQEDNDYINASLIKMEEAQRSYILTQGPLPNTCGHFWEMVWEQKSRGVVMLNRVMEKGSLKCAQYWPQKEEKEMIFEDTNLKLTLISEDIKSYYTVRQLELENLTTQETREILHFHYTTWPDFGVPESPASFLNFLFKVRESGSLSPEHGPVVVHCSAGIGRSGTFCLADTCLLLMDKRKDPSSVDIKKVLLEMRKFRMGLIQTADQLRFSYLAVIEGAKFIMGDSSVQDQWKELSHEDLEPPPEHIPPPPRPPKRILEPHNGKCREFFPNHQWVKEETQEDKDCPIKEEKGSPLNAAPYGIESMSQDTEVRSRVVGGSLRGAQAASPAKGEPSLPEKDEDHALSYWKPFLVNMCVATVLTAGAYLCYRFLFNSNT			binds	binds
